Taken from: PubChem BioAssay AID493246 (Drosophila RNAi Screening Center, 2011)
The screen tested about 21,000 reagents; below is a random part of those with a known target gene and a result. Over the whole deposit, 429 (2%) are marked active. 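Values are raw and not normalised between plates; calls rest on per-plate z-scores that were not deposited.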 A plus sign joins genes that one reagent is predicted to hit. The record does not give: the amount of reagent, the time to read-out.

- Screen: 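Genome-wide search for dsRNAs that reduce cell number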 (primary screen)
- Cell system: Drosophila Kc and S2R+ cells
- Knock-down reagent: long dsRNA against Drosophila genes
- Read-out: 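Cell number per well after knock-down, printed as raw plate values; calls were based on per-plate z-scores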
- Direction: Kc cell number and S2R+ cell number: higher = more cells remaining
- Active means: 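Counted as a hit if cell number falls by a z-score of at least 3 within its plate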

CG14490 [DRSC06461] → Kc cell number, rep 1 = 1.48e6; Kc cell number, rep 2 = 1.55e6; S2R+ cell number, rep 1 = 1.18e6; S2R+ cell number, rep 2 = 1.29e6; call = inactive
CG42516 + Pbp49 [DRSC06073] → Kc cell number, rep 1 = 1.29e6; Kc cell number, rep 2 = 1.36e6; S2R+ cell number, rep 1 = 1.09e6; S2R+ cell number, rep 2 = 1.12e6; call = inactive
CG11106 [DRSC19381] → Kc cell number, rep 1 = 1.69e6; Kc cell number, rep 2 = 1.59e6; S2R+ cell number, rep 1 = 1.10e6; S2R+ cell number, rep 2 = 1.24e6; call = inactive
Mur29B [DRSC01018] → Kc cell number, rep 1 = 1.52e6; Kc cell number, rep 2 = 1.57e6; S2R+ cell number, rep 1 = 1.01e6; S2R+ cell number, rep 2 = 1.14e6; call = inactive
Mur29B [DRSC02376] → Kc cell number, rep 1 = 1.60e6; Kc cell number, rep 2 = 1.61e6; S2R+ cell number, rep 1 = 1.21e6; S2R+ cell number, rep 2 = 1.37e6; call = inactive
Vti1a [DRSC08563] → Kc cell number, rep 1 = 1.23e6; Kc cell number, rep 2 = 1.37e6; S2R+ cell number, rep 1 = 9.23e5; S2R+ cell number, rep 2 = 1.03e6; call = inactive
CG12498 [DRSC18635] → Kc cell number, rep 1 = 1.52e6; Kc cell number, rep 2 = 1.53e6; S2R+ cell number, rep 1 = 1.02e6; S2R+ cell number, rep 2 = 1.16e6; call = inactive
Doc3 [DRSC10480] → Kc cell number, rep 1 = 1.36e6; Kc cell number, rep 2 = 1.32e6; S2R+ cell number, rep 1 = 1.24e6; S2R+ cell number, rep 2 = 1.30e6; call = inactive
Alg9 [DRSC14407] → Kc cell number, rep 1 = 1.46e6; Kc cell number, rep 2 = 1.53e6; S2R+ cell number, rep 1 = 1.33e6; S2R+ cell number, rep 2 = 1.46e6; call = inactive
Golgin97 [DRSC06895] → Kc cell number, rep 1 = 1.36e6; Kc cell number, rep 2 = 1.51e6; S2R+ cell number, rep 1 = 1.02e6; S2R+ cell number, rep 2 = 8.62e5; call = inactive
CG18682 (retired record) [DRSC15373] → Kc cell number, rep 1 = 1.50e6; Kc cell number, rep 2 = 1.60e6; S2R+ cell number, rep 1 = 1.09e6; S2R+ cell number, rep 2 = 1.21e6; call = inactive
CG18682 (retired record) [DRSC15374] → Kc cell number, rep 1 = 1.49e6; Kc cell number, rep 2 = 1.77e6; S2R+ cell number, rep 1 = 1.05e6; S2R+ cell number, rep 2 = 1.19e6; call = inactive
sac [DRSC12237] → Kc cell number, rep 1 = 1.32e6; Kc cell number, rep 2 = 1.45e6; S2R+ cell number, rep 1 = 1.27e6; S2R+ cell number, rep 2 = 1.35e6; call = inactive
Grx3 [DRSC02966] → Kc cell number, rep 1 = 1.39e6; Kc cell number, rep 2 = 1.44e6; S2R+ cell number, rep 1 = 1.25e6; S2R+ cell number, rep 2 = 1.38e6; call = inactive

Part of the list above, set out differently.
target gene,amplicon,"Kc cell number, rep 1","Kc cell number, rep 2","S2R+ cell number, rep 1","S2R+ cell number, rep 2",call
CG12498,DRSC18635,1.52e6,1.53e6,1.02e6,1.16e6,inactive
Doc3,DRSC10480,1.36e6,1.32e6,1.24e6,1.30e6,inactive
